From patent US20250000988A1, “EPHA2 BICYCLIC PEPTIDE LIGAND AND CONJUGATE THEREOF” (priority 2021, published 2025)
For part of these data: At least one peptide structure holds a part that was inferred or is arguable (an end, a ring closure or a residue). At least one structure is not confirmed: it was looked up by name or label, or the drawing left a doubt. Numbered stars: 1 amine (or outer) side, 2 acyl side, 3 side chain; on linkers, the order of the positions; unused ones are H or OH. Bridge positions count the residues as written; N and C are the ends. Square brackets hold non-standard residues; d marks the D form. Peptide text beside a SMILES is read from it. I, II: the chains in the order shown. * marks the point of attachment. TATA = O=C(CC[*:1])N1CN(C(=O)CC[*:2])CN(C(=O)CC[*:3])C1; Dolaproine = CO[C@@H]([C@@H]1CCCN1)[C@@H](C)C(=O)O; Dil = CC[C@H](C)[C@H](NC)[C@@H](CC(=O)O)OC; X2 = O=C(CCCC(=O)[*:2])NCCC(=O)[*:1]; PABC = O=C(OCc1ccc(N[*:1])cc1)[*:2]; X1 = C[C@@H](N*)[C@@H](O)c1ccccc1; Hyp = O=C(O)[C@@H]1C[C@@H](O)CN1; hArg = N=C(N)NCCCC[C@H](N)C(=O)O; Cit = NC(=O)NCCC[C@H](N)C(=O)O; NMeV = CN[C@H](C(=O)O)C(C)C; hCys = N[C@@H](CCS)C(=O)O; Sar = CNCC(=O)O

Key:
PC3 cells = assay: PC3 cell proliferation inhibition assay; assay type: cell-based, human; details: for IC50: cultured 3 days with compound
Protocol: PC3 cell culture conditions: RPMI-1640+10% FBS+1% penicillin-streptomycin solution. The cells were cultured in a 37° C., 5% CO2 incubator. On the first day, the PC3 cells in the exponential growth phase were collected and plated in a 96-well cell culture plate at a density of 500 cells/well (90 μL/well). The cells were cultured overnight in a 37° C., 5% CO2 incubator. The next day, 10 μL of the compound at different concentrations was added to each well so that the final concentration of DMSO in each well was 0.1%. The mixture was cultured in a 37° C., 5% CO2 incubator for 3 days. After the completion of culture, 50 μL of detection solution (Cell Viability Assay, Promega, G7573) was added to each well. The mixture was mixed uniformly for 2 minutes and incubated at room temperature for 10 minutes. The chemiluminescence reading was detected by a microplate reader. The results were processed according to formula (1), the proliferation inhibition rate of the compound at different concentrations was calculated, and the IC50 value of the compound with an inhibition rate of 50% was calculated using origin9.2 software, wherein RLUcompound was the readout of the treated group, and RLUcontrol was the average value of the solvent control group.

[1] = test system: PC3 cells subcutaneous transplanted tumor; assay: Mouse PC3 cells subcutaneous in vivo transplanted tumor model; design: species or system CB-17 SCID mice; details: 0.5 mg/kg intravenously, once a week, after 35 days
Protocol: Human prostate cancer PC3 cells were placed in an RPMI-1640 medium (supplemented with 10% fetal bovine serum and 1% penicillin-streptomycin solution) and cultured at 37° C. Conventional digestion treatment with trypsin was carried out twice a week for passage. When the cell saturation was 80%-90%, and the number reached the requirement, the cells were collected, counted, and inoculated. Male CB-17 SCID mice (from Beijing Vital River Laboratory Animal Technology Co., Ltd.) were subcutaneously inoculated with 0.1 mL (2×10^6) of PC3 cells (plus matrigel, with the volume ratio of 1:1) on the right back. When the average tumor volume reached about 80-120 mm^3, grouping and administration were performed (marked as Day 0). For the solvent group, 50 mM of acetic acid and 10% sucrose solution (pH=5) were administered; and for the administration group, 0.5 mg/kg of compound 2, compound 4 or compound 13 was intravenously administered. The administration frequency was once a week and the administration cycle was 35 days (Day 0-Day 34). After grouping, the tumor diameter was measured twice a week with a vernier caliper. The formula for calculating the tumor volume was: V=0.5×a×b^2, where a and b represented the long and short diameters of the tumor, respectively. The tumor inhibitory effect of the compound was evaluated by TGI (%)= [1−(average tumor volume at the end of administration in the treatment group-average tumor volume at the beginning of administration in the treatment group)/(average tumor volume at the end of treatment in the solvent control group-average tumor volume at the beginning of treatment in the solvent control group)]×100%. The tumor growth curve and the animal body weight change curve were as shown in FIG. 1 and FIG. 2, respectively.

MOLP8 cells = assay: MOLP8 cell proliferation inhibition assay; assay type: cell-based, human
Protocol: Human multiple myeloma MOLP8 cells purchased from DSMZ were placed in complete RPMI-1640 medium (supplemented with 20% fetal bovine serum) and cultured at 37° C. and 5% CO2. The cells in the exponential growth phase were collected, and the cell suspension was adjusted to 8000 cells/135 μL with the culture medium. 135 μl of the cell suspension was added to each well of a 96-well cell culture plate and incubated overnight. The next day, compounds at different concentrations were added, and the plate was placed in the incubator and incubated for 5 days. After the completion of culture, according to operation instructions for a CellTiter-Glo kit (Promega, Cat #G7573), 75 μL of CTG solution, which was already pre-melted and equilibrated to room temperature, was added to each well, and the mixture was uniformly mixed for 2 minutes using a microplate shaker. The plate was placed at room temperature for 10 minutes, and then […] signal values were measured using an Envision 2104 plate reader (PerkinElmer). The cell proliferation inhibition rate was calculated according to the formula [(1−(RLUcompound−RLUblank)/(RLUcontrol−RLUblank))×100%]. The IC50 value was obtained by four-parameter nonlinear fitting using GraphPad Prism software.

With `CC[C@H](C)[C@@H]([C@@H](CC(=O)N1CCC[C@H]1[C@H](OC)[C@@H](C)C(=O)N[C@H](C)[C@@H](O)c1ccccc1)OC)N(C)C(=O)[C@@H](NC(=O)[C@H](C(C)C)N(C)C(=O)OCc1ccc(NC(=O)[C@H](CCCNC(N)=O)NC(=O)[C@@H](NC(=O)CCCC(=O)NCCC(=O)N(C)CC(=O)N(C)CC(=O)N(C)CC(=O)N(C)CC(=O)N(C)CC(=O)N(C)CC(=O)N(C)CC(=O)N(C)CC(=O)N(C)CC(=O)N(C)CC(=O)N[C@@H](C)C(=O)N[C@@H](CCCCNC(=N)N)C(=O)N[C@@H](CC(=O)O)C(=O)N[C@H]2CSCCC(=O)N3CN4CN(C3)C(=O)CCSC[C@H](NC(=O)[C@H](CC(C)C)NC(=O)[C@@H]3CCCN3C(=O)[C@H](CC(N)=O)NC(=O)[C@H](C(C)C)NC(=O)[C@H](CC(C)C)NC(=O)[C@@H]3C[C@@H](O)CN3C2=O)C(=O)N[C@@H](CC(C)C)C(=O)N[C@@H](Cc2c[nH]cn2)C(=O)N2CCC[C@H]2C(=O)N[C@H](CC(=O)O)C(=O)N[C@@H](Cc2c[nH]c3ccccc23)C(=O)N[C@@H](CCCCNC(=N)N)C(=O)N[C@H](C(N)=O)CCSCCC4=O)C(C)C)cc1)C(C)C` [Compound 2] (I: [Sar][Sar][Sar][Sar][Sar][Sar][Sar][Sar][Sar][Sar]A[hArg]DC[Hyp]LVNPLCLHP[dD]W[hArg][hCys]-NH2 / II: V[Cit][PABC][NMeV]V[Dil][Dolaproine]-X1; linker I:14-I:21-I:28 via TATA; linker I:N-II:N via X2) the “Max inh. % 10 μM” value (PC3 cells) was 75.0%, the IC50 (PC3 cells) was no more than 10 nM and the TGI [1] was 90%.
With `CC[C@H](C)[C@@H]([C@@H](CC(=O)N1CCC[C@H]1[C@H](OC)[C@@H](C)C(=O)N[C@H](C)[C@@H](O)c1ccccc1)OC)N(C)C(=O)[C@@H](NC(=O)[C@H](C(C)C)N(C)C(=O)OCc1ccc(NC(=O)[C@H](CCCNC(N)=O)NC(=O)[C@@H](NC(=O)CCCC(=O)NCCC(=O)N(C)CC(=O)N(C)CC(=O)N(C)CC(=O)N(C)CC(=O)N(C)CC(=O)N(C)CC(=O)N(C)CC(=O)N(C)CC(=O)N(C)CC(=O)N(C)CC(=O)N[C@@H](C)C(=O)N[C@@H](CCCCNC(=N)N)C(=O)N[C@@H](CC(=O)O)C(=O)N[C@H]2CCSCCC(=O)N3CN4CN(C3)C(=O)CCSC[C@H](NC(=O)[C@H](CC(C)C)NC(=O)[C@@H]3CCCN3C(=O)[C@H](CC(N)=O)NC(=O)[C@H](C(C)C)NC(=O)[C@H](CC(C)C)NC(=O)[C@@H]3C[C@@H](O)CN3C2=O)C(=O)N[C@@H](CC(C)C)C(=O)N[C@@H](Cc2c[nH]cn2)C(=O)N2CCC[C@H]2C(=O)N[C@H](CC(=O)O)C(=O)N[C@@H](Cc2c[nH]c3ccccc23)C(=O)N[C@@H](CCCCNC(=N)N)C(=O)N[C@H](C(N)=O)CSCCC4=O)C(C)C)cc1)C(C)C` [Compound 4] (I: [Sar][Sar][Sar][Sar][Sar][Sar][Sar][Sar][Sar][Sar]A[hArg]D[hCys][Hyp]LVNPLCLHP[dD]W[hArg]C-NH2 / II: V[Cit][PABC][NMeV]V[Dil][Dolaproine]-X1; linker I:14-I:21-I:28 via TATA; linker I:N-II:N via X2) the “Compound 4 IC50/MMAE IC50” value (MOLP8 cells; MOLP8 cells) was 120, the “Max inh. % 10 μM” value (MOLP8 cells; MOLP8 cells, 10 μM) was 99.1% and the “cell selectivity (activity on negative cell MOLP8 versus positive cell PC3)” value (MOLP8 cells; MOLP8 versus PC3) was “good cell selectivity”. For the same compound, the “Max inh. % 10 μM” value (PC3 cells) was 73.5%, the IC50 (PC3 cells) was no more than 10 nM and the TGI [1] was 92%.
For `CC[C@H](C)[C@@H]([C@@H](CC(=O)N1CCC[C@H]1[C@H](OC)[C@@H](C)C(=O)N[C@H](C)[C@@H](O)c1ccccc1)OC)N(C)C(=O)[C@@H](NC(=O)[C@H](C(C)C)N(C)C(=O)OCc1ccc(NC(=O)[C@H](CCCNC(N)=O)NC(=O)[C@@H](NC(=O)CCCC(=O)NCCC(=O)N(C)CC(=O)N(C)CC(=O)N(C)CC(=O)N(C)CC(=O)N(C)CC(=O)N(C)CC(=O)N(C)CC(=O)N(C)CC(=O)N(C)CC(=O)N(C)CC(=O)N[C@@H](C)C(=O)N[C@@H](CCCCNC(=N)N)C(=O)N[C@@H](CC(=O)O)C(=O)N[C@H]2CCSCCC(=O)N3CN4CN(C3)C(=O)CCSC[C@H](NC(=O)[C@H](CC(C)C)NC(=O)[C@@H]3CCCN3C(=O)[C@H](CC(N)=O)NC(=O)[C@H](C(C)C)NC(=O)[C@H](CC(C)C)NC(=O)[C@@H]3C[C@@H](O)CN3C2=O)C(=O)N[C@@H](CC(C)C)C(=O)N[C@@H](Cc2c[nH]cn2)C(=O)N2CCC[C@H]2C(=O)N[C@H](CC(=O)O)C(=O)N[C@@H](Cc2c[nH]c3ccccc23)C(=O)N[C@@H](CCCCNC(=N)N)C(=O)N[C@H](C(N)=O)CCSCCC4=O)C(C)C)cc1)C(C)C` [Compound 13] (I: [Sar][Sar][Sar][Sar][Sar][Sar][Sar][Sar][Sar][Sar]A[hArg]D[hCys][Hyp]LVNPLCLHP[dD]W[hArg][hCys]-NH2 / II: V[Cit][PABC][NMeV]V[Dil][Dolaproine]-X1; linker I:14-I:21-I:28 via TATA; linker I:N-II:N via X2), the “Max inh. % 10 μM” value (PC3 cells) was 72.9%, the IC50 (PC3 cells) was 10 to 50 nM and the TGI [1] was 88%.
